Taken from: PubChem BioAssay AID1259254 (NCATS, 2017)

Purpose: 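Gene knock-downs that lead to re-replication, shown by excess G2 DNA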 (primary screen)
Cell system: human HCT116 colorectal cancer cells
Knock-down reagent: single siRNA against human genes
Duration: 3 days
Detection: 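Nuclei stained with Hoechst and imaged; cell-cycle phase assigned by DNA content; G2 share scaled per plate, non-targeting siRNA 0%, GMNN siRNA 100%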
Scale: G2 robust z-score and G2 cells, % of GMNN control: higher = more G2 cells, more excess DNA replication
Hit rule: 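An siRNA counts as active if its G2 robust z-score lies at least 5 MADs above the screen median; here such calls match roughly 38% of GMNN control or more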
Here is an unselected part of about 59,000 reagents tested. In the full data, about 1,550 (2.6%) got an active call. 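G2 share is only a proxy for re-replication; each gene was hit by three separate siRNAs, and active genes were retested.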 Entries without a mark were called inactive. Reagents against one gene are numbered here. Further read-outs or replicates are left out here. Reagent sequences are not shown. The record does not give: the amount of reagent.

{"gene": "POP4", "siRNA no.": 1, "G2 robust z-score": -0.0709, "G2 cells, % of GMNN control": 2.47}
{"gene": "POP4", "siRNA no.": 2, "G2 robust z-score": -0.725, "G2 cells, % of GMNN control": -2.13}
{"gene": "POP4", "siRNA no.": 3, "G2 robust z-score": -0.972, "G2 cells, % of GMNN control": -3.87}
{"gene": "SLC38A1", "siRNA no.": 1, "G2 robust z-score": "7.69 (active)", "G2 cells, % of GMNN control": 57.1}
{"gene": "SLC38A1", "siRNA no.": 2, "G2 robust z-score": -0.167, "G2 cells, % of GMNN control": 1.79}
{"gene": "SLC38A1", "siRNA no.": 3, "G2 robust z-score": 1.19, "G2 cells, % of GMNN control": 11.3}
{"gene": "CASP9", "siRNA no.": 1, "G2 robust z-score": 2.39, "G2 cells, % of GMNN control": 19.8}
{"gene": "CASP9", "siRNA no.": 2, "G2 robust z-score": 1.57, "G2 cells, % of GMNN control": 14}
{"gene": "CASP9", "siRNA no.": 3, "G2 robust z-score": -0.317, "G2 cells, % of GMNN control": 0.74}

In a second layout: entries from further up.
POP4 #2 → G2 robust z-score: -0.725; G2 cells, % of GMNN control: -2.13
POP4 #3 → G2 robust z-score: -0.972; G2 cells, % of GMNN control: -3.87
SLC38A1 #1 → G2 robust z-score: 7.69 (active); G2 cells, % of GMNN control: 57.1

The results go on.
{"gene": "UNC80", "siRNA no.": 1, "G2 robust z-score": -0.494, "G2 cells, % of GMNN control": -0.505}
{"gene": "UNC80", "siRNA no.": 2, "G2 robust z-score": 0.00869, "G2 cells, % of GMNN control": 3.03}
{"gene": "UNC80", "siRNA no.": 3, "G2 robust z-score": 0.116, "G2 cells, % of GMNN control": 3.79}
{"gene": "LPGAT1", "siRNA no.": 1, "G2 robust z-score": -0.609, "G2 cells, % of GMNN control": -1.32}
{"gene": "LPGAT1", "siRNA no.": 2, "G2 robust z-score": 0.804, "G2 cells, % of GMNN control": 8.62}
{"gene": "LPGAT1", "siRNA no.": 3, "G2 robust z-score": 2.44, "G2 cells, % of GMNN control": 20.1}
{"gene": "RPL30", "siRNA no.": 1, "G2 robust z-score": 4.19, "G2 cells, % of GMNN control": 32.5}
{"gene": "RPL30", "siRNA no.": 2, "G2 robust z-score": 3.15, "G2 cells, % of GMNN control": 25.1}
{"gene": "RPL30", "siRNA no.": 3, "G2 robust z-score": 3.3, "G2 cells, % of GMNN control": 26.2}
{"gene": "TEX13A", "siRNA no.": 1, "G2 robust z-score": 2.93, "G2 cells, % of GMNN control": 23.6}
{"gene": "TEX13A", "siRNA no.": 2, "G2 robust z-score": -0.265, "G2 cells, % of GMNN control": 1.1}
{"gene": "TEX13A", "siRNA no.": 3, "G2 robust z-score": 0.0986, "G2 cells, % of GMNN control": 3.66}
{"gene": "CBR3", "siRNA no.": 1, "G2 robust z-score": -1.44, "G2 cells, % of GMNN control": -7.16}
{"gene": "CBR3", "siRNA no.": 2, "G2 robust z-score": 0.396, "G2 cells, % of GMNN control": 5.76}
{"gene": "CBR3", "siRNA no.": 3, "G2 robust z-score": 0.481, "G2 cells, % of GMNN control": 6.35}
